Assay results taken from the supplement of paper PMC10849652.
The other results are listed elsewhere or left out. Residues, ends and D or L forms follow the SMILES beside them. *: point of attachment. Cbz = O=C(OCc1ccccc1)*

Protein sequences, listed by entry. Tags and fused reporters are not part of them. Lines headed by an entry give the natural chain unless they say otherwise; changes in a name come on top.
UniProt Q9UBP0: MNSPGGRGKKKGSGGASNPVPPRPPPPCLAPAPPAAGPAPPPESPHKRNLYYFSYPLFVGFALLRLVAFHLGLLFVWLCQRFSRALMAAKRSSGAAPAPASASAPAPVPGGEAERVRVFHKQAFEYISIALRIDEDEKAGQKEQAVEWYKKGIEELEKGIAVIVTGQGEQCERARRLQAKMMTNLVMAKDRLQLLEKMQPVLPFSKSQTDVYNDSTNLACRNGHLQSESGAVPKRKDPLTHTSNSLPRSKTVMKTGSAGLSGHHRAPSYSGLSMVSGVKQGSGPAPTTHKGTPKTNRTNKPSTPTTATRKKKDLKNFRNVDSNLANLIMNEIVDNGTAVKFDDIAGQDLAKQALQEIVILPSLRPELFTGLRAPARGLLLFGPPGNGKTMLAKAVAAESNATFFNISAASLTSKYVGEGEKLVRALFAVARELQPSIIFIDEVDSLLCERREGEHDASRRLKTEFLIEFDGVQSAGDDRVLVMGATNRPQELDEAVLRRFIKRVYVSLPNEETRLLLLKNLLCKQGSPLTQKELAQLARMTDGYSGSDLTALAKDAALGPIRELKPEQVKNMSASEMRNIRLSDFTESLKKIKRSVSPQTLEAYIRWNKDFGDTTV
UniProt Q69YQ0: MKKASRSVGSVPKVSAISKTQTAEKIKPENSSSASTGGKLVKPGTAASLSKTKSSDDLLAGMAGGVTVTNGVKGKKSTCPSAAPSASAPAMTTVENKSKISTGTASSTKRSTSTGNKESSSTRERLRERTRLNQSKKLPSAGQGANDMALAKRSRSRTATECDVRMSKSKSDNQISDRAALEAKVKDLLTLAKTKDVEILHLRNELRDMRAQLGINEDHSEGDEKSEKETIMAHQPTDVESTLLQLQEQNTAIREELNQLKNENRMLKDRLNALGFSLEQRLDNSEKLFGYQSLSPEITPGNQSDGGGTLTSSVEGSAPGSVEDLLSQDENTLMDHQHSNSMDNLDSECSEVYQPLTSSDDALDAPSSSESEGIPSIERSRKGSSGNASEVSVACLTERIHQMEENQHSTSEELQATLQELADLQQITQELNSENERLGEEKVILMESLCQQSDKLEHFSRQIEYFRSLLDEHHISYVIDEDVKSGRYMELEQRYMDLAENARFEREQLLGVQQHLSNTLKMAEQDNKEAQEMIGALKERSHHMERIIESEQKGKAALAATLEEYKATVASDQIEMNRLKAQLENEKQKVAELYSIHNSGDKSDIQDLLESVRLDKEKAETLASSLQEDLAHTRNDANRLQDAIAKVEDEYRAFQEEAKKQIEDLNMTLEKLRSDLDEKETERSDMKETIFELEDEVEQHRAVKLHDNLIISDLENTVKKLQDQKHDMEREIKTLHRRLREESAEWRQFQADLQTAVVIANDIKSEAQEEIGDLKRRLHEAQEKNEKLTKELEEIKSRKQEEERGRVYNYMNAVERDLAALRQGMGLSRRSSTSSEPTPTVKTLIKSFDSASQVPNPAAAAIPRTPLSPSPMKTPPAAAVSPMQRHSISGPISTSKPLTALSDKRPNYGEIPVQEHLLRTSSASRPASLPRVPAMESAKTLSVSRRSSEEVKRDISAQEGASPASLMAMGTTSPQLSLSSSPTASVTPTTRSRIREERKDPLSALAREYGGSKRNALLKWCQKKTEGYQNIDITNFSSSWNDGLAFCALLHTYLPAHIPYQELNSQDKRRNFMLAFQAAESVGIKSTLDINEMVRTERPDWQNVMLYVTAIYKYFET
UniProt Q15005: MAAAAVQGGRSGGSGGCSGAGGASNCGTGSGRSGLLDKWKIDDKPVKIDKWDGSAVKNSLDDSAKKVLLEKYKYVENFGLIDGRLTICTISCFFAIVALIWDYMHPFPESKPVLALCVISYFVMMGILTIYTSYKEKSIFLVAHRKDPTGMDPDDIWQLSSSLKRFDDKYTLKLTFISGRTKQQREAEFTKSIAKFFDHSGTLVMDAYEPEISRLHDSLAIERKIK
UniProt Q8TCT8: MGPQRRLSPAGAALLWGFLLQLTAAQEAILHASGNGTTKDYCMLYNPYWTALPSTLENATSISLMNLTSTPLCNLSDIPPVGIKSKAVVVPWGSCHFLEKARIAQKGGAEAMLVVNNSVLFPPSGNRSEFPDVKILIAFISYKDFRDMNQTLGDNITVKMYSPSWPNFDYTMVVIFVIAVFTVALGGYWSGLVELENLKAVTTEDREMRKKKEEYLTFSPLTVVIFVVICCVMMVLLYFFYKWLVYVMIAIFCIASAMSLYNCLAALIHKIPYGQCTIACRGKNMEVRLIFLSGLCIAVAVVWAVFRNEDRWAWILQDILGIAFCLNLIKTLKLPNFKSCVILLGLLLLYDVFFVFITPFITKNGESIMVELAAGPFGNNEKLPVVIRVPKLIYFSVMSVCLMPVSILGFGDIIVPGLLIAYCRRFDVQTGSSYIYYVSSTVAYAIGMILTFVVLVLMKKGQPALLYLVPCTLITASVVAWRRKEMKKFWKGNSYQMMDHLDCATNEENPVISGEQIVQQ
UniProt O95630, whole entry, looked up: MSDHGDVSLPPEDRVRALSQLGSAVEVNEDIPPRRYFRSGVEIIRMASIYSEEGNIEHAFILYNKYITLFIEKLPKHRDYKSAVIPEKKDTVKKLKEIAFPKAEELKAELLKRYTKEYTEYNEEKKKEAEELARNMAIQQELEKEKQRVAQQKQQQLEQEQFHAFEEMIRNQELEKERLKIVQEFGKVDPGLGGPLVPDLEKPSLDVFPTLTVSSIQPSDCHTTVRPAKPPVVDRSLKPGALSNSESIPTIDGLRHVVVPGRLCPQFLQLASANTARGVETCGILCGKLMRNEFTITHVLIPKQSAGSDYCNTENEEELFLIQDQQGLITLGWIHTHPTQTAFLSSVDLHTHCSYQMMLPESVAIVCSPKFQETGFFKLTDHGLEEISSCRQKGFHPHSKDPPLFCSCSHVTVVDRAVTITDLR
UniProt P42229: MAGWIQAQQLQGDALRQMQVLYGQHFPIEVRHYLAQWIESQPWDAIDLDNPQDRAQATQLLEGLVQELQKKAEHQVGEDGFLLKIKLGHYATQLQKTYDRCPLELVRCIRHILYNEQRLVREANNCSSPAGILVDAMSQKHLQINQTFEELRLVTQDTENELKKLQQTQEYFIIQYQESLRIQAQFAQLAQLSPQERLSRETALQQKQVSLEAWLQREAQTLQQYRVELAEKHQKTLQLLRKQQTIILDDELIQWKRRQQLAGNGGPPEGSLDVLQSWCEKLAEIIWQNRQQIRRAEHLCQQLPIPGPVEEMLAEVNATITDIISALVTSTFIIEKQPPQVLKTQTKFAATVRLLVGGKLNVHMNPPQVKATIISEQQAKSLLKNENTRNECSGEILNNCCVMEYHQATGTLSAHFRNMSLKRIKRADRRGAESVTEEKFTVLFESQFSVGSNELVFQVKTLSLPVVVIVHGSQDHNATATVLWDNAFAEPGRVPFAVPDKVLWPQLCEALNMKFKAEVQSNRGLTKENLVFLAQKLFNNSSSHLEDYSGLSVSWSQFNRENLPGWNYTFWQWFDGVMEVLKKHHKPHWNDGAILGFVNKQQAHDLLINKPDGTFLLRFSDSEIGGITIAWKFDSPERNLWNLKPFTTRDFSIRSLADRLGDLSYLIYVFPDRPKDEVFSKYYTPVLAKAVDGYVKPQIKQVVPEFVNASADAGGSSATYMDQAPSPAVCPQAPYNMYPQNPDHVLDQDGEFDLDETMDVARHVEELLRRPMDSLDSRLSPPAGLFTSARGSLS
UniProt Q658P3: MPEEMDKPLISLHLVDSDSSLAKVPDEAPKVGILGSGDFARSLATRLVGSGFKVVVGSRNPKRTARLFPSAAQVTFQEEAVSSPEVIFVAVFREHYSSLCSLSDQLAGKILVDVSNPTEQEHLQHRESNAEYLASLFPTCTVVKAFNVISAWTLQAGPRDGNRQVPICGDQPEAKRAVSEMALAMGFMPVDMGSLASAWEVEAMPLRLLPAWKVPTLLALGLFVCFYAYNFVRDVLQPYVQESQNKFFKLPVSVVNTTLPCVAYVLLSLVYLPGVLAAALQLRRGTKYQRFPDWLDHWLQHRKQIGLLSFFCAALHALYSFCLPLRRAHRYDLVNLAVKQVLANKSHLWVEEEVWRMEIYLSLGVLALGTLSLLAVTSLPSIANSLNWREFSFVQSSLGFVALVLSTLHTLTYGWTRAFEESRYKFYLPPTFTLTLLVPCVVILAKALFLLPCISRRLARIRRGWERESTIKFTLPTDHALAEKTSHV
UniProt P51692: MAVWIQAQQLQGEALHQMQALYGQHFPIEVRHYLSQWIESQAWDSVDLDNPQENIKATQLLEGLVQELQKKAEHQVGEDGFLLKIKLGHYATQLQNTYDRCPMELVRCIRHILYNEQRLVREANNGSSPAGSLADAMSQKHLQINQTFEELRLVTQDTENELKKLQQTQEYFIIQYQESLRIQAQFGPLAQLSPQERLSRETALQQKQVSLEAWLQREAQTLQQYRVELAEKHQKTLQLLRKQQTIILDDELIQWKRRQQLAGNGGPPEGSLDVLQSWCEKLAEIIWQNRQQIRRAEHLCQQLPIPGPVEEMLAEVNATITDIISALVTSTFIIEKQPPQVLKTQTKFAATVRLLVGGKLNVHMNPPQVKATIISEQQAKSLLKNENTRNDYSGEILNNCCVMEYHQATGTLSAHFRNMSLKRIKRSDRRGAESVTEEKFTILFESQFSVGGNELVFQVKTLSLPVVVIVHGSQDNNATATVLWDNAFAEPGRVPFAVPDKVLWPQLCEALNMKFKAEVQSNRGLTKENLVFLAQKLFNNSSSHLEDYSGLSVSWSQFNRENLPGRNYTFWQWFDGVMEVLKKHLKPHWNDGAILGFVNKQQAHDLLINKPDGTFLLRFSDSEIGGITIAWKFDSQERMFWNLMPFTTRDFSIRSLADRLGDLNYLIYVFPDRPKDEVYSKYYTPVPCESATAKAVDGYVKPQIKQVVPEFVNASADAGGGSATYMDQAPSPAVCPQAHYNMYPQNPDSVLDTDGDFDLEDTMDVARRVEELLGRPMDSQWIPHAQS
UniProt Q9BWG4: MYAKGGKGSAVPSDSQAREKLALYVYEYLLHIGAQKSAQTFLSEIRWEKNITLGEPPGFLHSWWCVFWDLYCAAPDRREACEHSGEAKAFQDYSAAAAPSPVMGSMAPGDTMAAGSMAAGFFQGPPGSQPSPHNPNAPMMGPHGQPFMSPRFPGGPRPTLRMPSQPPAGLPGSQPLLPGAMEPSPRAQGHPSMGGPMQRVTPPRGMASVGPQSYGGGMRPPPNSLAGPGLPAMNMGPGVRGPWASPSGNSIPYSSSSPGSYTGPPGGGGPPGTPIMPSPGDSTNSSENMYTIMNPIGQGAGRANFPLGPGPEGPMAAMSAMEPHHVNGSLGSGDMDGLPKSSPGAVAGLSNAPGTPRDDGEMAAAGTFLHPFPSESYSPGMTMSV
UniProt P52630: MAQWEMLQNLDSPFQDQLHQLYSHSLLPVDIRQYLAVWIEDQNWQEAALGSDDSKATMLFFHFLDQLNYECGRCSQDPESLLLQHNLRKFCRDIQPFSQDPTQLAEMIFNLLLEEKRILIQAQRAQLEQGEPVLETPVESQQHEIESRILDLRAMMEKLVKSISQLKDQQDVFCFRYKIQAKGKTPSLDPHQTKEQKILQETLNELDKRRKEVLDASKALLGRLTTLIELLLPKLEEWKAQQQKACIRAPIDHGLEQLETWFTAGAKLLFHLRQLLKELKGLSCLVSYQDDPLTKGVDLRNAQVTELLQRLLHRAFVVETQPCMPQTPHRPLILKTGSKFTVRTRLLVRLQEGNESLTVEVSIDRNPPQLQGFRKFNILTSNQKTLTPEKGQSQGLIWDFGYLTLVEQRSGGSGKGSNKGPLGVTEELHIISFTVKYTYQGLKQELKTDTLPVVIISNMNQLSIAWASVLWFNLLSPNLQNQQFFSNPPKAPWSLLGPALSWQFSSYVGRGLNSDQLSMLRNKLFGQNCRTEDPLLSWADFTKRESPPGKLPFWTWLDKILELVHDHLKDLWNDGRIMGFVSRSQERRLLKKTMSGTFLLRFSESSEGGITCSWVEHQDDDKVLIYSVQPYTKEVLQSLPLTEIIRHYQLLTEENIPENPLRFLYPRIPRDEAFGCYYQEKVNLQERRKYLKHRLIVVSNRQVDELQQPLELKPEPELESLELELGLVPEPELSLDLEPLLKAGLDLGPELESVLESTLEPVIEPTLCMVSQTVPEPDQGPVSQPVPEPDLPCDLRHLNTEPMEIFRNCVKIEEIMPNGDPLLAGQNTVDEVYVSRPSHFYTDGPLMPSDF
UniProt Q13247: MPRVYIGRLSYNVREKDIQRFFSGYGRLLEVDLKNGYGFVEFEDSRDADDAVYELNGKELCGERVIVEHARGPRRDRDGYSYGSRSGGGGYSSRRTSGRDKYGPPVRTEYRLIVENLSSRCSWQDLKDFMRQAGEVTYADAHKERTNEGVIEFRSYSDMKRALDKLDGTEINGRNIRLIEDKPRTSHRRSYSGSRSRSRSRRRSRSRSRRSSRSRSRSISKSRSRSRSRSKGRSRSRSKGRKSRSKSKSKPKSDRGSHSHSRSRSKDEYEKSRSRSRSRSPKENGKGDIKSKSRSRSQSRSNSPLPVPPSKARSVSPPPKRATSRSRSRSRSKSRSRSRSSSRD

What was measured:
Experiment in all cases: log2 fold change, soluble protein after heating vs DMSO (PISA); higher = thermal stabilisation; K562 cells, 10 uM, 30 min; active = over 0.2 and 3.5 SD of the protein, either way, in both replicates (recomputed)
[1] = compound: C1COCCN1CCN2C3=CC=CC=C3N=C2NC(=O)C4=CC(=CC=C4)[N+](=O)[O-] [IRAK-1-4 Inhibitor I]
Outline: (§1)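 Soluble protein was quantified by TMTpro 16plex LC-MS/MS after channel sums were equalised. It was obtained as the supernatant after 21,000xg for 90 min from pooled aliquots of K562 cells (2×10^6 cells/mL, 10 μM compound, 30 min) heated for 3 min across 48°C-58°C and extracted in PBS with 0.5% NP-40 at 4°C. Thermal stability values are relative to control samples and come from duplicates. They are given as log2 fold changes.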

[2] = compound: C=CC(=O)N1CCC[C@@H](n2nc(-c3ccc(Oc4ccccc4)cc3)c3c(N)ncnc32)C1 [ibrutinib]
Outline: as §1

[3] = compound: CC(=O)c1cnc2ccc(-c3cc(Cl)c(O)c(Cl)c3)nc2c1N[C@H]1CC[C@H](CN(C)C)CC1
Outline: as §1

[4] = compound: CC(C)(C)Cn1c(N)nc2ccc(-c3[nH]c(C(C)(C)C)nc3-c3ccc(F)cc3)nc21 [ralimetinib]
Outline: as §1

[5] = compound: CC(C)(O)CC(=O)NCCn1ccc2ncnc(Nc3ccc(Oc4cccc(C(F)(F)F)c4)c(Cl)c3)c21
Outline: as §1

[6] = compound: CC(C)C1=C2N=C(C=C(N2N=C1)NCC3=CC=CC=C3)NCCCCCCN
Outline: as §1

[7] = compound: CC(C)C[C@@H](C=O)NC(=O)[C@H](CC(C)C)NC(=O)[C@H](CC(C)C)NC(=O)OCc1ccccc1
Outline: as §1

[8] = compound: CC(C)N(C[C@H]1O[C@@H](n2cnc3c(N)ncnc32)[C@H](O)[C@@H]1O)[C@H]1C[C@@H](CCc2nc3cc(C(C)(C)C)ccc3[nH]2)C1 [pinometostat]
Outline: as §1

[9] = compound: CC1=C(C2=C(C=C1)C(=O)C3=CC=CC=C3N2CCCN)C
Outline: as §1

[10] = compound: CC1=C(C(CC(=O)N1)C2=CC=C(C=C2)C(F)(F)F)C(=O)NC3=C(C=C4C(=C3)C=NN4)F
Outline: as §1

Measured: log2 fold change

SPIRE1 (UniProt Q08AE8)
inactive: [1] -0.065 | [2] 0.032 | [3] 0 | [4] 0.008 | [5] 0.073 | [6] 0.181 | [7] 0.09 | [8] -0.006 | [9] 0.029

SPAST (UniProt Q9UBP0)
inactive: [1] 0.054 | [2] -0.015 | [3] -0.073 | [4] 0.015 | [5] -0.157 | [6] -0.063 | [7] 0.013 | [8] 0.002 | [9] 0.114

SPECC1L (UniProt Q69YQ0)
inactive: [1] 0.049 | [2] 0.035 | [3] -0.032 | [4] -0.023 | [5] -0.124 | [6] 0.071 | [7] -0.015 | [8] -0.028 | [10] -0.012 | [9] 0.03

STK25 (UniProt O00506)
inactive: [1] 0.051 | [2] -0.067 | [3] 0 | [4] 0.015 | [5] -0.039 | [6] -0.02 | [7] 0.066 | [8] 0.034 | [9] 0.08

STARD3NL (UniProt O95772)
active: [6] -0.432
inactive: [1] 0.014 | [2] -0.023 | [3] -0.216 | [4] 0.038 | [5] -0.014 | [7] -0.036 | [8] 0.013 | [9] 0.062

Looked up one by one from the list above (2):
SPECC1L (UniProt Q69YQ0)
inactive: [1] 0.049 | [2] 0.035 | [3] -0.032 | [4] -0.023 | [5] -0.124 | [6] 0.071 | [7] -0.015 | [8] -0.028 | [10] -0.012 | [9] 0.03

SPIRE1 (UniProt Q08AE8)
inactive: [1] -0.065 | [2] 0.032 | [3] 0 | [4] 0.008 | [5] 0.073 | [6] 0.181 | [7] 0.09 | [8] -0.006 | [9] 0.029

(listing goes on)

SPCS2 (UniProt Q15005)
inactive: [1] -0.014 | [2] -0.037 | [3] -0.039 | [4] -0.047 | [5] -0.016 | [6] -0.01 | [7] -0.058 | [8] -0.062 | [9] 0.002

STIM1 (UniProt Q13586)
inactive: [1] 0.006 | [2] 0.007 | [3] -0.06 | [4] -0.036 | [5] -0.067 | [7] 0.034 | [8] -0.011 | [9] 0.067
active: [6] -0.33

SPPL2A (UniProt Q8TCT8)
inactive: [1] 0.015 | [2] 0.15 | [3] 0.029 | [4] -0.082 | [5] -0.06 | [6] -0.061 | [7] -0.008 | [8] -0.082 | [9] -0.025

SRP72 (UniProt O76094)
active: [9] -0.547
inactive: [1] -0.119 | [2] -0.03 | [3] -0.025 | [4] 0.104 | [5] -0.121 | [6] -0.275 | [7] 0.062 | [8] 0.205

SSX2 (UniProt Q16385)
inactive: [1] -0.038 | [2] -0.004 | [3] -0.006 | [4] -0.03 | [5] 0.022 | [6] -0.044 | [7] 0.123 | [8] -0.065
active: [9] -1.33

STAMBP (UniProt O95630)
inactive: [1] -0.051 | [2] -0.027 | [3] 0.005 | [4] 0.094 | [5] -0.03 | [6] -0.097 | [7] 0.022 | [8] 0.11 | [10] -0.074 | [9] 0.021

STK11 (UniProt Q15831)
inactive: [1] 0.071 | [2] 0.029 | [3] -0.104 | [4] -0.004 | [5] -0.025 | [6] 0.091 | [7] 0.065 | [8] -0.002 | [10] 0.021 | [9] 0.003

SPCS3 (UniProt P61009)
inactive: [1] 0.052 | [2] -0.021 | [3] -0.008 | [4] -0.029 | [5] 0.122 | [6] 0.031 | [7] 0 | [8] 0.001 | [10] 0.066 | [9] -0.008

SRPRA (UniProt P08240)
inactive: [1] -0.024 | [2] 0.015 | [3] -0.028 | [4] -0.002 | [5] -0.058 | [6] 0.021 | [7] -0.006 | [8] -0.001
active: [9] 0.269

STAT5A (UniProt P42229)
inactive: [1] -0.116 | [2] -0.088 | [3] -0.164 | [4] 0.046 | [5] 0.019 | [6] -0.053 | [7] 0.006 | [8] 0.033 | [9] -0.009

STARD9 (UniProt Q9P2P6)
inactive: [1] -0.121 | [2] 0.161 | [3] 0.091 | [4] 0.068 | [5] -0.156 | [6] -0.066 | [7] 0.085 | [8] 0.083 | [9] -0.07

SPART (UniProt Q8N0X7)
inactive: [1] 0.008 | [2] -0.033 | [3] -0.084 | [4] 0.02 | [5] -0.058 | [6] -0.056 | [7] -0.011 | [8] 0.034 | [9] 0.128

STEAP3 isoform 2 (UniProt Q658P3)
inactive: [1] -0.002 | [2] -0.005 | [3] -0.067 | [4] 0.013 | [5] -0.087 | [6] -0.011 | [7] 0.032 | [8] 0.043 | [9] 0.044

STAT5B (UniProt P51692)
inactive: [1] -0.153 | [2] -0.146 | [3] 0.018 | [4] 0.121 | [5] -0.401 | [6] -0.119 | [7] 0.044 | [8] -0.095 | [9] -0.022

SSBP4 (UniProt Q9BWG4)
inactive: [1] 0.013 | [2] 0.001 | [3] -0.081 | [4] -0.131 | [6] 0.058 | [7] 0.011 | [8] 0.09 | [9] 0.015

ST8SIA6 (UniProt P61647)
inactive: [1] 0.005 | [2] -0.049 | [3] -0.067 | [8] 0.163

SRSF11 (UniProt Q05519)
inactive: [1] -0.116 | [2] -0.014 | [4] 0.01 | [5] -0.049 | [6] -0.255 | [7] -0.005 | [8] -0.016 | [9] 0.026
active: [3] -0.416

STAB1 (UniProt Q9NY15)
inactive: [1] -0.064 | [2] -0.103 | [4] -0.158 | [5] 0.232 | [6] 0.019 | [7] -0.005 | [8] -0.021

STAT2 (UniProt P52630)
inactive: [1] -0.25 | [2] 0.173 | [3] -0.014 | [4] 0.181 | [6] -0.622 | [7] 0.215 | [8] 0.448 | [9] -0.017

SRSF6 (UniProt Q13247)
inactive: [1] -0.082 | [2] -0.072 | [3] -0.167 | [5] 0.234 | [6] -0.086 | [8] 0.116 | [9] -0.744

SPINDOC (UniProt Q9BUA3)
inactive: [1] 0.029 | [2] 0.089 | [3] 0.017 | [4] 0.084 | [5] -0.01 | [6] 0.103 | [7] 0 | [8] 0.075 | [9] -0.24

SRSF10 (UniProt O75494)
inactive: [1] -0.179 | [2] 0.07 | [3] -0.047 | [4] 0.185 | [5] 0.218 | [6] 0.002 | [7] 0.102 | [8] 0.418 | [9] -0.396

SRPRB (UniProt Q9Y5M8)
inactive: [1] -0.021 | [2] 0.004 | [3] -0.014 | [4] 0.034 | [5] -0.055 | [6] -0.036 | [7] -0.051 | [8] -0.026
active: [9] 0.292
